# Test results from the supplement of paper PMC9135407.
# Where “and” joins values, the source holds several entries; their conditions need not be identical. Equal values may be shown once. Where a name gives a salt, the structure may show the parent alone. ± gives the standard deviation of the averaged measurements. The list shows a part of the results. Part of the spread comes from offsets between plates or batches.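 Assay uses culture-activated primary human stellate myofibroblasts; lipid droplet recovery indicates inactivation. Measured: proportion of Hoechst-counted cells over a plate-specific Bodipy cutoff, duplicate wells, DMSO and nortriptyline as per-plate negative and positive controls. A hit scores, control-normalized, above the plate's top-tenth-percentile nortriptyline wells or ranks among its three best wells. Final well concentrations not reported.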
# Test system: primary human hepatic stellate cells (donor 1)
# Assay: percent Bodipy-positive cells; higher = more lipid droplet accumulation
# Details: 48 h
# [1] = library stock concentration: 1 mM
# [2] = library stock concentration: 10 mM
# [3] = library stock concentration: 3.33 mM
# [4] = library stock concentration: 6.3 mM
# [5] = library stock concentration: 9.1 mM
compound,measurement,setting,value
CC/C=C\C/C=C\C/C=C\C/C=C\C/C=C\CCCC(=O)O [Eicosapentaenoic Acid],percent Bodipy-positive cells,[1],10.6 ± 1.9%
CC/C=C\C/C=C\C/C=C\C/C=C\C/C=C\CCCC(=O)O [Eicosapentaenoic acid (20:5 n-3)],percent Bodipy-positive cells,[1],5.67 ± 4.6%
O=C1/C(=C/c2cccs2)CC/C1=C\c1cccs1,percent Bodipy-positive cells,[2],32.4 ± 12%
CCCCC1CCC(c2nc(-c3ccncc3)no2)CC1 (stereo not given),percent Bodipy-positive cells,[1],6.76 ± 0.13%
same,percent Bodipy-positive cells,[2],9.54 ± 4.6%
CC1CCN(c2cc(N3CCN(C)CC3)ccc2NC(=O)c2cc(C#N)c[nH]2)CC1,percent Bodipy-positive cells,[2],92.9 ± 4.3%
COc1ccc(NC(=O)c2cc(OCCCN(C)C)nn2Cc2ccccc2)cc1.Cl [CFM 1571 hydrochloride],percent Bodipy-positive cells,[2],71.4 ± 2.7%
Nc1ccc(S(=O)(=O)NC(=O)c2ccccc2)cc1 [Sulfabenzamide],percent Bodipy-positive cells,,10.4 ± 7.6%
same,percent Bodipy-positive cells,library stock concentration: 7.2 mM,16 ± 2.3%
same,percent Bodipy-positive cells,[2],14.3 ± 6%
CCC=CCC=CCC=CCC=CCCCCC(=O)OCC [Stearidonic Acid ethyl ester],percent Bodipy-positive cells,[1],13.8 ± 3.2%
C[N+](C)(C)CCOP(=O)(O)OP(=O)([O-])OC[C@H]1O[C@@H](n2ccc(N)nc2=O)[C@H](O)[C@@H]1O [Cytidine 5'-diphosphocholine sodium salt hydrate],percent Bodipy-positive cells,[2],35.6 ± 9.9%
C[N+](C)(C)CCOP(=O)(O)OP(=O)([O-])OC[C@H]1O[C@@H](n2ccc(N)nc2=O)[C@H](O)[C@@H]1O [Citicoline],percent Bodipy-positive cells,[2],37 ± 6.1%
CCCCCOc1ccc(-c2ccc(-c3ccc(C(=O)N[C@H]4C[C@@H](O)[C@@H](O)NC(=O)[C@@H]5[C@@H](O)[C@@H](C)CN5C(=O)[C@H]([C@@H](C)O)NC(=O)[C@H]([C@H](O)[C@@H](O)c5ccc(O)cc5)NC(=O)[C@@H]5C[C@@H](O)CN5C(=O)[C@H]([C@@H](C)O)NC4=O)cc3)cc2)cc1,percent Bodipy-positive cells,[3],11.9 ± 0.73%
same,percent Bodipy-positive cells,[2],64.2 ± 2.8%
C=C(CC)C(=O)c1ccc(OCC(=O)O)c(Cl)c1Cl [Ethacrynic acid],percent Bodipy-positive cells,,17.8 ± 2%
same,percent Bodipy-positive cells,library stock concentration: 6.6 mM,8.61% and 5.09%
same,percent Bodipy-positive cells,[2],4.33 ± 0.77%
CC(C)c1nc(N(C)S(C)(=O)=O)nc(-c2ccc(F)cc2)c1/C=C/[C@@H](O)C[C@@H](O)CC(=O)O [Rosuvastatin],percent Bodipy-positive cells,[2],36.6 ± 1.1%
CC(C)c1nc(N(C)S(C)(=O)=O)nc(-c2ccc(F)cc2)c1/C=C/[C@@H](O)C[C@@H](O)CC(=O)O [Rosuvastatin Calcium],percent Bodipy-positive cells,[3],7.22 ± 2.9%
same,percent Bodipy-positive cells,[2],31.8 ± 25%
CCCC[P+](CCCC)(CCCC)Cc1ccc(NC(=O)C(Cc2ccc3ccccc3c2)NC(=NC2CCCCC2)NC2CCCCC2)cc1 (stereo not given),percent Bodipy-positive cells,[2],58.2 ± 9.6%
CCCCCCCCCCCCCCCC(=O)O[C@H](CC(=O)O)C[N+](C)(C)C,percent Bodipy-positive cells,[2],13.5 ± 4.3%
CN1CCN(c2ccc3nc(-c4c(N)c5c(F)cccc5[nH]c4=O)[nH]c3c2)CC1,percent Bodipy-positive cells,library stock concentration: 400 uM,90 ± 5.5%
same,percent Bodipy-positive cells,library stock concentration: 2 mM,96.78 ± 0.53%
same,percent Bodipy-positive cells,[2],96.2 ± 1.5%
CS(=O)(=O)c1ccc([C@@H](O)[C@@H](CF)NC(=O)C(Cl)Cl)cc1 [Florfenicol],percent Bodipy-positive cells,,6.47 ± 0.98%
same,percent Bodipy-positive cells,[3],8.76 ± 3%
same,percent Bodipy-positive cells,[2],25.5 ± 7.7%
CCN(CC)CCCC(C)Nc1ccnc2cc(Cl)ccc12 (stereo not given) [Chloroquine phosphate],percent Bodipy-positive cells,[4],25.7 ± 2.4%
CCN(CC)CCCC(C)Nc1ccnc2cc(Cl)ccc12 (stereo not given) [Chloroquine diphosphate],percent Bodipy-positive cells,,67.3 ± 6.4%
CC(=O)N[C@@H](CC(C)C)C(=O)N[C@@H](CC(C)C)C(=O)N[C@H](C=O)CCCNC(=N)N [Leupeptin Hemisulfate],percent Bodipy-positive cells,[3],30.2 ± 12%
same,percent Bodipy-positive cells,[2],30.6 ± 7.4%
CCCCCCCCCCCC(=O)c1nc2ncccc2o1,percent Bodipy-positive cells,[1],12 ± 4.1%
FCOC(C(F)(F)F)C(F)(F)F,percent Bodipy-positive cells,[2],32.3 ± 16%
O=C(COc1cccc2c(=O)[nH]ccc12)c1ccccc1,percent Bodipy-positive cells,[3],34.4 ± 11%
Cc1cccc(C)c1NC(=O)c1ccccc1C(=O)O,percent Bodipy-positive cells,[2],41 ± 24%
CCNC(=O)[C@H]1O[C@@H](n2cnc3c(N)nc(NCCc4ccc(CCC(=O)O)cc4)nc32)[C@H](O)[C@@H]1O,percent Bodipy-positive cells,[2],34.3 ± 5.3%
CNCCNS(=O)(=O)c1cccc2cnccc12 [H-8 dihydrochloride],percent Bodipy-positive cells,[2],44.7 ± 4%
"CNCCNS(=O)(=O)c1cccc2cnccc12 [H-8, Dihydrochloride]",percent Bodipy-positive cells,[3],14.2 ± 0.69%
O=C(CN=C(c1ccccc1)c1ccccc1)OCc1ccccc1 [N-(diphenylmethylene) Glycine benzyl ester],percent Bodipy-positive cells,[1],9.7 ± 0.17%
O=C(O)Cn1c(C(=O)Nc2nc(-c3ccccc3Cl)cs2)cc2ccccc21,percent Bodipy-positive cells,[2],5.22 ± 3%
C[C@](N)(Cc1ccc(O)cc1)C(=O)O [L-alpha-Methyl-p-tyrosine],percent Bodipy-positive cells,[2],59.6 ± 13%
CC(C)NCC(O)COc1cccc2ccccc12 (racemic) [Propranolol hydrochloride (+/-)],percent Bodipy-positive cells,library stock concentration: 6.8 mM,57.3 ± 8.3%
same,percent Bodipy-positive cells,[2],65.27 ± 0.12%
C[C@@H](O)[C@H]1C(=O)N2C(C(=O)O)=C(SCCNC=N)C[C@H]12 [Imipenem],percent Bodipy-positive cells,,28.1 ± 4.2%
same,percent Bodipy-positive cells,library stock concentration: 6.7 mM,9.09 ± 2.6%
C[C@@H](O)[C@H]1C(=O)N2C(C(=O)O)=C(SCCNC=N)C[C@H]12 [Imipenem monohydrate],percent Bodipy-positive cells,[2],35.2 ± 0.73%
CCCCN1C[C@H](O)[C@@H](O)[C@H](O)[C@H]1CO [Miglustat],percent Bodipy-positive cells,[5],6.6 ± 2.8%
O=C1NC(=O)C(c2cn(CCCO)c3ncccc23)=C1c1cnccn1 [GSK-3b Inhibitor XI],percent Bodipy-positive cells,[3],18.1 ± 3.5%
c1ccc2c(c1)CCCC2C1=NCCN1 (stereo not given) [Tetrahydrozoline HCl],percent Bodipy-positive cells,[3],6.96 ± 1.6%
same,percent Bodipy-positive cells,[2],32.7 ± 22%
c1ccc2c(c1)CCCC2C1=NCCN1 (stereo not given) [Tetrahydrozoline hydrochloride],percent Bodipy-positive cells,,10.3 ± 1.9%
same,percent Bodipy-positive cells,[2],27.7% and 16.9%
c1ccc2c(c1)CCCC2C1=NCCN1 (stereo not given) [Tyzine],percent Bodipy-positive cells,[2],19.8 ± 2.3%
CNc1ncnc2c1ncn2[C@@H]1O[C@H](CO)[C@@H](O)[C@H]1O [N6-methyladenosine (m6A)],percent Bodipy-positive cells,[3],7.76 ± 1.4%
same,percent Bodipy-positive cells,[2],34.2 ± 20%
CNc1ncnc2c1ncn2[C@@H]1O[C@H](CO)[C@@H](O)[C@H]1O [N6-methyladenosine],percent Bodipy-positive cells,,31.6 ± 2.8%
CNc1ncnc2c1ncn2[C@@H]1O[C@H](CO)[C@@H](O)[C@H]1O [N6-Methyladenosine],percent Bodipy-positive cells,[2],25.4 ± 8.6%
Cc1ncc([N+](=O)[O-])n1C,percent Bodipy-positive cells,[2],30.9 ± 1.1%
CC(C)OC(=O)C(C(=O)OC(C)C)=C1SC=CS1 [Malotilate],percent Bodipy-positive cells,[3],13.3 ± 4.5%
same,percent Bodipy-positive cells,[2],18 ± 13%
CCCCCC(O)C=CC1C2CC(CO2)C1CC=CCCCC(=O)O (stereo not given),percent Bodipy-positive cells,[1],23.8%
"OCC(O)CN1CCN(c2ccccc2)CC1 (racemic) [Dropropizine (R,S)]",percent Bodipy-positive cells,,24.1 ± 4.8%
O=C(c1ccc(F)cc1)C1CCN(CCCCc2ccccc2)CC1 [4-(4-Fluorobenzoyl)-1-(4-phenylbutyl)-piperidine oxalate],percent Bodipy-positive cells,[2],34.5 ± 6.4%
CC(C)(C)C(=O)OCOC(=O)[C@@H]1N2C(=O)[C@@H](/N=C/N3CCCCCC3)[C@H]2SC1(C)C [Pivmecillinam hydrochloride],percent Bodipy-positive cells,,9.45 ± 0.77%
CC/C=C\C/C=C\C/C=C\C/C=C\CCCCC(=O)O [Stearidonic Acid],percent Bodipy-positive cells,[1],6.98 ± 2.6%
N[C@@H](CC(=O)O)C(=O)O [L-Aspartic acid],percent Bodipy-positive cells,[2],42.7 ± 5%
CCN(CC)CCOc1ccc(C(=C(Cl)c2ccccc2)c2ccccc2)cc1.O=C(O)CC(O)(CC(=O)O)C(=O)O [Clomifene citrate],percent Bodipy-positive cells,[2],91.8 ± 3.5%
O=C1NCCN1c1ncc([N+](=O)[O-])s1 [Niridazole],percent Bodipy-positive cells,,27.8 ± 1.3%
C[Se]CC[C@H](N)C(=O)O,percent Bodipy-positive cells,[2],33.1 ± 8.4%
Nc1ncnc2c1ncn2[C@@H]1O[C@H](CO)C[C@@H]1O [3'-deoxydenosine],percent Bodipy-positive cells,[2],10.6 ± 2.8%
O=C(O)C1=C[C@@H](O)[C@@H](O)[C@H](O)C1 [Shikimic Acid],percent Bodipy-positive cells,[3],12.1 ± 13%
same,percent Bodipy-positive cells,[2],15.8 ± 5.9%
C1N2CN3CN1CN(C2)C3 [Methenamine],percent Bodipy-positive cells,[3],13.5 ± 8.9%
same,percent Bodipy-positive cells,[2],34% and 15.8%
same,percent Bodipy-positive cells,library stock concentration: 14.3 mM,4.25 ± 0.7%
CCCCCN(C)CCC(O)(P(=O)(O)O)P(=O)(O)O [Ibandronate sodium],percent Bodipy-positive cells,[2],16.6 ± 0.87%
CCCCCN(C)CCC(O)(P(=O)(O)O)P(=O)(O)O [Ibandronate],percent Bodipy-positive cells,[4],7.21 ± 1.3%
C=C(C)[C@@H]1CC[C@]2(C(=O)O)CC[C@]3(C)[C@H](CC[C@@H]4[C@@]5(C)CC[C@H](O)C(C)(C)[C@@H]5CC[C@]43C)[C@@H]12 [Betulinic acid],percent Bodipy-positive cells,,20.2 ± 6.9%
same,percent Bodipy-positive cells,[3],6.97 ± 2.6%
same,percent Bodipy-positive cells,[2],37.7 ± 2.2%
same,percent Bodipy-positive cells,library stock concentration: 10.9 mM,38.7 ± 11%
Nc1nnc(Sc2ncc([N+](=O)[O-])s2)s1,percent Bodipy-positive cells,[2],41.3 ± 0.85%
CN(C)c1cnccn1,percent Bodipy-positive cells,[2],32.3 ± 6.9%
CCCCCCCC/C=C\C/C=C\C/C=C\CCCC(=O)NCCO [Mead ethanolamide],percent Bodipy-positive cells,[1],7.35 ± 1.6%
"CCCCCCCC/C=C\C/C=C\C/C=C\CCCC(=O)NCCO [5(Z),8(Z),11(Z)-Eicosatrienoic Acid Ethanolamide]",percent Bodipy-positive cells,[1],11.5 ± 1.8%
CC1(C)CCC(NC(=O)[C@@H](N)CCC(=O)O)CC1,percent Bodipy-positive cells,[2],31.2 ± 1.7%
Cl.Cl.O=C(NCCCN1CCC2(CC1)OCc1ccccc12)[C@H]1CCCN1Cc1ccccc1,percent Bodipy-positive cells,[2],69.3 ± 11%
O=C(O)C(Cc1ccccc1[N+](=O)[O-])=NNc1nc(-c2ccc(Cl)c(Cl)c2)cs1,percent Bodipy-positive cells,[3],20.5 ± 1.1%
same,percent Bodipy-positive cells,[2],26.8 ± 12%
O=C(O)C1CCNCC1 [Isonipecotic acid],percent Bodipy-positive cells,[2],41.8 ± 12%
CC(=O)OCC(=O)NCCCOc1cccc(CN2CCCCC2)c1 [Roxatidine acetate HCl],percent Bodipy-positive cells,library stock concentration: 5.7 mM,4.94 ± 3.4%
CC(=O)OCC(=O)NCCCOc1cccc(CN2CCCCC2)c1,percent Bodipy-positive cells,[2],10.1% and 25%
CC(=O)OCC(=O)NCCCOc1cccc(CN2CCCCC2)c1 [Roxatidine Acetate HCl],percent Bodipy-positive cells,,25.3 ± 0.85%
same,percent Bodipy-positive cells,[3],5.88 ± 1%
same,percent Bodipy-positive cells,[2],15.2 ± 11%
CS(=O)(=O)c1ccc(-c2nc(-c3ccc(F)cc3)c(-c3ccncc3)[nH]2)cc1,percent Bodipy-positive cells,[3],16.2 ± 5.8%
CCn1cc(C(=O)O)c(=O)c2cc(F)c(N3CCNCC3)nc21 [Enoxacin],percent Bodipy-positive cells,[3],8.57 ± 3.3%
same,percent Bodipy-positive cells,library stock concentration: 6.2 mM,8.49% and 16.2%
CN(C)CC/C=C1/c2ccccc2COc2ccccc21.Cl [Doxepin hydrochloride],percent Bodipy-positive cells,[4],77.9 ± 6.2%
CCCC[C@@H](C)/C=C(C)/C=C(\C)C(=O)NC1=C[C@@](O)(/C=C/C=C/C=C/C(=O)NC2=C(O)CCC2=O)[C@@H]2O[C@@H]2C1=O [Manumycin A],percent Bodipy-positive cells,[5],99.43 ± 0.8%
C[C@H](NCc1ccc(OCc2cccc(F)c2)cc1)C(N)=O [Safinamide Mesylate],percent Bodipy-positive cells,[3],13.2 ± 4.8%
same,percent Bodipy-positive cells,[2],37.4 ± 6.9%
"CC1(C)CCC=[N+]1[O-] [5,5-Dimethyl-1-pyrroline-N-oxide]",percent Bodipy-positive cells,[2],36.8 ± 23%
